Results as given in publication PMC7604352.
These are yes or no findings as the source states them, for the method shown. Binding seen in cells or lysates may run through a third protein. Some binding calls cover weakened binding; strength is not graded here.

Sequences of proteins named here, by UniProt entry; tags and fusion partners are left off. Residues count along the entry.
UniProt O00206, residues 24-839: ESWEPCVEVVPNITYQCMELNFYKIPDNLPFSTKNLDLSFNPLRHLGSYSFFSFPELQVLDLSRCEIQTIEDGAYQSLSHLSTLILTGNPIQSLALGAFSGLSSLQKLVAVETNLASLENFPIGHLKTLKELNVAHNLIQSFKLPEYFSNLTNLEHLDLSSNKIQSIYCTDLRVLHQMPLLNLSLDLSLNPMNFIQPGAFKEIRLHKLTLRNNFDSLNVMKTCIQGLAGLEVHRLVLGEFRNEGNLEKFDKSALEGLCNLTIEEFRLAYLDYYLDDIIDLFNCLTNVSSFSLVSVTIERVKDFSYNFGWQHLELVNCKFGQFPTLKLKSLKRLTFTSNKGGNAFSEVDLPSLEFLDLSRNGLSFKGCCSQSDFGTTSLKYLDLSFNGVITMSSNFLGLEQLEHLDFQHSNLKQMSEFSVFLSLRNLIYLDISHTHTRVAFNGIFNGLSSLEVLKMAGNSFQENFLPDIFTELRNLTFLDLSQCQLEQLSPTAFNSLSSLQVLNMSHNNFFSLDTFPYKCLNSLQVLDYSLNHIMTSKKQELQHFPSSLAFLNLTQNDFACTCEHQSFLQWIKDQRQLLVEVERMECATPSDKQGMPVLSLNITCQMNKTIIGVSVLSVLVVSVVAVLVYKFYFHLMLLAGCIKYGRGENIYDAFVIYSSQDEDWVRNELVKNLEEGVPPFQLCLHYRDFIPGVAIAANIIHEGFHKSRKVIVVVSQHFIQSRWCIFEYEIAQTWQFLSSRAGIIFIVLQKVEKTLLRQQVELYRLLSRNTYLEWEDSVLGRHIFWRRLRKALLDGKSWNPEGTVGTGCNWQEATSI

Target: toll-like receptor 4 (human (endogenous in Hep3B)) (UniProt O00206)
Test: co-IP; Hep3B cells; immunoprecipitation with the antibody against TLR4 (sc-293072, Santa Cruz), blot for USP13; protocol as in Tu et al., 2014

binding: binds
B1: ubiquitin specific peptidase 13 (enzyme, UniProt Q92995 1-863)
chain: MQRRGALFGMPGGSGGRKMAAGDIGELLVPHMPTIRVPRSGDRVYKNECAFSYDSPNSEGGLYVCMNTFLAFGREHVERHFRKTGQSVYMHLKRHVREKVRGASGGALPKRRNSKIFLDLDTDDDLNSDDYEYEDEAKLVIFPDHYEIALPNIEELPALVTIACDAVLSSKSPYRKQDPDTWENELPVSKYANNLTQLDNGVRIPPSGWKCARCDLRENLWLNLTDGSVLCGKWFFDSSGGNGHALEHYRDMGYPLAVKLGTITPDGADVYSFQEEEPVLDPHLAKHLAHFGIDMLHMHGTENGLQDNDIKLRVSEWEVIQESGTKLKPMYGPGYTGLKNLGNSCYLSSVMQAIFSIPEFQRAYVGNLPRIFDYSPLDPTQDFNTQMTKLGHGLLSGQYSKPPVKSELIEQVMKEEHKPQQNGISPRMFKAFVSKSHPEFSSNRQQDAQEFFLHLVNLVERNRIGSENPSDVFRFLVEERIQCCQTRKVRYTERVDYLMQLPVAMEAATNKDELIAYELTRREAEANRRPLPELVRAKIPFSACLQAFSEPENVDDFWSSALQAKSAGVKTSRFASFPEYLVVQIKKFTFGLDWVPKKFDVSIDMPDLLDINHLRARGLQPGEEELPDISPPIVIPDDSKDRLMNQLIDPSDIDESSVMQLAEMGFPLEACRKAVYFTGNMGAEVAFNWIIVHMEEPDFAEPLTMPGYGGAASAGASVFGASGLDNQPPEEIVAIITSMGFQRNQAIQALRATNNNLERALDWIFSHPEFEEDSDFVIEMENNANANIISEAKPEGPRVKDGSGTYELFAFISHMGTSTMSGHYICHIKKEGRWVIYNDHKVCASERPPKDLGYMYFYRRIPS
